Measured values published in patent US20230310573A1, “Stabilized Vaccine Compositions” (priority 2020, published 2023).

Molecular target: T1, RSV pre-fusion F protein of SEQ ID NO: 10 (Human respiratory syncytial virus A, UniProt P03420, D486N/DEL108-136/I379V/M447V/N67I/P102A/S215P)
T1 construct: made in house
Type: physicochemical
Method: The RSV pre-fusion F protein of SEQ ID NO: 10 was diluted to 0.3 mg/ml in phosphate buffer (Formulation 1) and 0.75 ml was filled in glass injection vials with rubber stopper and sealed with aluminum caps. Additionally, protein was diluted in the formulation buffers with inhibitor in a 1:3 trimer:compound ratio. One inhibitor binds one trimer so with a 1:3 ratio there is an excess of inhibitor. […] In 24 hours, samples were cooled down from RT to −70° C. Samples were thawed to RT and analyzed by analytical Size Exclusion Chromatography (SEC) to measure loss of RSV F trimer.
0.75 ml of each formulation was filled in glass injection vials with rubber stopper and sealed with aluminum caps. Additionally, protein was diluted in the formulation buffers and inhibitor was added in a 1:1, 1:3, 1:9, 1:27 and 1:50 trimer: compound ratio. Final compound concentrations were 1.7×10^−6 M, 5.2×10^−6 M, 1.6×10^−5M, 4.6×10^−5, and 8.6×10^−5 M, respectively. Vials were slowly frozen to −70° C. in 24 hours. Samples were subsequently thawed to RT and analyzed by analytical Size Exclusion Chromatography (SEC) to measure loss of RSV F trimer compared the sample that was kept at 4° C.

Cc1ccc(CCCO)c(NCc2ccc3nc(NCCCN4CCOCC4)n(Cc4nc(C)ccc4O)c3c2)c1 [Compound I, 2-[[6-[[2-(3-hydroxypropyl)-5-methyl-anilino]methyl]-2-(3-morpholinopropylamino)benzimidazol-1-yl]methyl]-6-methyl-pyridin-3-ol]
aggregation after slow freeze: no aggregations were observed | trimer % after slow freeze with compound vs without: higher trimer %
